Laboratory results taken from US20230333019A1, “TWO-PHOTON FLUORESCENT PROBES FOR SIMULTANEOUSLY DETECTING CALCIUM IONS IN ORGANELLES AND LYSOSOMAL PROTONS” (Korea University Research and Business Foundation, priority 2022, published 2023).

Each compound was assayed on HeLa cells (assay: Effective TP action cross-section (Φδeff) in probe-labeled cells). Settings: bright spots in HeLa cells.
Type: cell-based
Description: Φδ and Φδeff for the probes were evaluated using the fluorescence method as reported in other studies (Chem. Asian J. 2015, 10(10):2240-2249).

How did the “Effective concentration ceff = Φδeff/Φδmax” value turn out when `O=C([O-])CN(CC(=O)[O-])c1ccc(NC(=O)CNc2ccc3cc(-c4nc5cc(OCCC[P+](c6ccccc6)(c6ccccc6)c6ccccc6)ccc5o4)ccc3c2)cc1OCCOc1c(F)cccc1N(CC(=O)[O-])CC(=O)[O-].[Br-].[K+].[K+].[K+].[K+]` [BCa-2mito] was run?
Its value is 29 µM.

`CCCCCCOc1ccc2oc(-c3ccc4cc(NCC(=O)Nc5ccc(N(CC(=O)[O-])CC(=O)[O-])c(OCC(=O)N6CCOCC6)c5)ccc4c3)nc2c1.[K+].[K+]` [BCa-3mem] was tested. Which “Effective concentration ceff = Φδeff/Φδmax” value did it give?
The value was 80 µM.

How did the “Effective concentration ceff = Φδeff/Φδmax” value turn out when `CCN(CC)c1ccc(NC(=O)CNc2ccc3c(c2)C(C)(CC(=O)NCCN(C)C)c2cc(C(C)=O)ccc2-3)cc1` (stereo not drawn) [FHEt-1lyso] was run?
Its value is 300 µM.
